For 1 molecule, binding results are on record in PMC4117747, “The N-terminus of Mcm10 is important for interaction with the 9-1-1 clamp and in resistance to DNA damage” (Nucleic Acids Research, 2014).

Residue numbers refer to the chain shown, from its start. No constants are given. Whether binding was seen depends on the method and setting. Some binding calls cover weakened binding; strength is not graded here. Sequences can lack the tags named with a protein.

What all share (assay): two-hybrid; yeast two-hybrid with pBTM116 (LexA) and pACT2 fusions; β-galactosidase activity in cell extracts, in triplicate from at least three clones
In assay [1] the target is T1, Mcm10Δ110 (LexA fusion) (S. cerevisiae) (UniProt P32354).
T1 sequence: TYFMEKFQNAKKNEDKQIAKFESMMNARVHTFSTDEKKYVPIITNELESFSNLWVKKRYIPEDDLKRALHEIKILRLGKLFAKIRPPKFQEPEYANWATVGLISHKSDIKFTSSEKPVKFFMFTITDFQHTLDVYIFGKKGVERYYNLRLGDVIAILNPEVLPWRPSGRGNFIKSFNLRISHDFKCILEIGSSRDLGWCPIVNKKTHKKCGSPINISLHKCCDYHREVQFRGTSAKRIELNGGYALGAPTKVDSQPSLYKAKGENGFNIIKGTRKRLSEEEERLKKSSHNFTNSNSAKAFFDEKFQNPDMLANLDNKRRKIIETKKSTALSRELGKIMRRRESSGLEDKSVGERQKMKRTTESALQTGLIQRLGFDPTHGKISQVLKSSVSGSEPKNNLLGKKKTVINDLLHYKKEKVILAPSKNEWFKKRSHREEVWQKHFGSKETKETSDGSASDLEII

Assay [2] has as its target T2, Mcm10 Y245A (two-hybrid fusion) (S. cerevisiae) (UniProt P32354).
T2 sequence: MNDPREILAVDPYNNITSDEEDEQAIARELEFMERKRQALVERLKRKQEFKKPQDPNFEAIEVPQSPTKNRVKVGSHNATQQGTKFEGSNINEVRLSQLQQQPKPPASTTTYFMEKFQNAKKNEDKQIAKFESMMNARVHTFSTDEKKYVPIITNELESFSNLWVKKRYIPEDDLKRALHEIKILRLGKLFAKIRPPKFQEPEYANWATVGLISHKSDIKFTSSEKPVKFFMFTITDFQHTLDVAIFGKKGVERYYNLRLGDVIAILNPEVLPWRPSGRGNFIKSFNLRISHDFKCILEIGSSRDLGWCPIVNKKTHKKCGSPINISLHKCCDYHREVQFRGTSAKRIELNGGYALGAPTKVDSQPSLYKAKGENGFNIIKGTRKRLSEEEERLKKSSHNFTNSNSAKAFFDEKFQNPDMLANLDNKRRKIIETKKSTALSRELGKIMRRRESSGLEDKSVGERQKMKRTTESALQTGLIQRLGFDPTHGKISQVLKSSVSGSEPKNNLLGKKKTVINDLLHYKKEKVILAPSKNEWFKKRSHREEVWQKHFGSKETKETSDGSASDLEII

Assay [3] addresses T3, Mcm10 L242Y (two-hybrid fusion) (S. cerevisiae) (UniProt P32354).
T3 sequence: T2 sequence with L242Y, A245Y

B1: Mec3 (pACT2 fusion, wild type) (protein, UniProt Q02574 1-474)
chain: MKLKLIVNGCEAPDDYKLLRTTINTVASLRKTAILRFNSERLTIISTPKSSLNSSNNGTILRGDTGQLWCTIPHDVFRLYTVISARELNTITMECNCDSLLSVFKRYDRVMNQGSSSNMTIKLQSMPEWNTNNGTLSGGTAGGVDTTSKPNPICALGITFEEIVHTSGPNDAIVMNGGVDEHNGLPTTVGTGNLLASNKVIMHSFKVPVKLLFRAQDTRIQEPMINYIQLMMYKLPPISGEFGSAFHGFIRRVERYSNVNHIHLMGVKKKEHGNEGDDVELKIIVNELDWHLEICWNGPLDSVIQRQEGLTDNPSQNQHIDTDGRQEEGSLPIIEADKPMSSLYTNTRDREMEENIRYDEDLLRIEDSSIADTRGNIYTADTSGDTEFNDISVMVEKAEQESSSTHEVIIRCKDWKVCSKLYAAFEEVVLAISHDESCVFHCSLDRGSLEDSEDVEKPRERGQIIYYIARSKGL
Consider B1, for which the binding entry is on record as “binds” in assay [1], “binds weakly” in assay [2] and “binds weakly” in assay [3].
